Measurements reported in PubChem BioAssay AID1159578 (Peter MacCallum Cancer Centre, 2015)
Aim: 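siRNA pools altering how lymphatic endothelial cells close a scratch wound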 (primary screen). Cells: human lymphatic endothelial cells. Knock-down reagent: siRNA pool against human genes, 40 nM. Time to read-out: 48 h after transfection. Read-out: 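High-content imaging of dye-stained cells in a scratch assay measures filled wound area and nuclei per well; duplicate means given as ratio to mock and robust z-score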. Direction: migration robust z-score: higher = faster migration into the scratch; migration relative to mock: higher = more scratch area covered than mock; nuclei per well: higher = more cells in the well. Active means: 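Migration changed when robust z exceeds 2 or falls below -2 and mean nuclei number is at least 3300; otherwise not called changed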. Meaning of the calls: active = migration changed; inactive = no migration change, or too few cells.
Here is a random part of about 18,000 reagents. In the full data, about 1,030 (5.7%) got an active call. 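Inactive calls also include pools with fewer than 3300 nuclei, whose migration was not assessed.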 The raw values are shown without normalisation. Entries without a mark were called inactive. Reagent sequences are not shown.

| gene knocked down | migration robust z-score | migration class with cell-count check | migration relative to mock | nuclei per well, duplicate mean |
| --- | --- | --- | --- | --- |
| CPT1C (carnitine palmitoyltransferase 1C) | 1.38 | migration z between -2 and 2; enough cells | 1.07 | 5413 |
| HLA-DQA2 (major histocompatibility complex, class II, DQ alpha 2) | -0.8 | migration z between -2 and 2; enough cells | 0.68 | 4564 |
| KIF3C (kinesin family member 3C) | 0.6 | migration z between -2 and 2; enough cells | 0.92 | 5198 |
| ZMYM6 (zinc finger MYM-type containing 6) | -0.62 | migration z between -2 and 2; enough cells | 0.72 | 4363 |
| NDN (necdin, MAGE family member) | -0.82 | migration z between -2 and 2; enough cells | 0.68 | 5744 |
| CNGA3 (cyclic nucleotide gated channel subunit alpha 3) | -0.42 | migration z between -2 and 2; enough cells | 0.72 | 6156 |
| MUCL3 (mucin like 3) | 0.36 | migration z between -2 and 2; enough cells | 0.98 | 5904 |
| GALT (galactose-1-phosphate uridylyltransferase) | 0.48 | migration z between -2 and 2; enough cells | 1.01 | 6585 |
| DDX51 (DEAD-box helicase 51) | -0.02 | migration z between -2 and 2; enough cells | 0.8 | 6179 |
| TRADD (TNFRSF1A associated via death domain) | 0.34 | migration z between -2 and 2; enough cells | 0.87 | 5518 |
| ZPR1 (ZPR1 zinc finger) | 0.03 | migration z between -2 and 2; enough cells | 0.89 | 5274 |
| SEMA6B (semaphorin 6B) | -0.13 | migration z between -2 and 2; enough cells | 0.86 | 5459 |
| ESRRA (estrogen related receptor alpha) | 0.18 | migration z between -2 and 2; enough cells | 0.84 | 6041 |
| SLC2A2 | -1.22 | migration z between -2 and 2; enough cells | 0.57 | 4710 |
| HSPA9 (heat shock protein family A (Hsp70) member 9) | 1.35 | migration z between -2 and 2; enough cells | 1.06 | 5965 |
| SYNGAP1 (synaptic Ras GTPase activating protein 1) | -2.31 (active) | migration z below -2; enough cells | 0.36 | 5302 |
| PLEKHF2 (pleckstrin homology and FYVE domain containing 2) | 0.12 | migration z between -2 and 2; enough cells | 0.92 | 6030 |
| MICOS13 | 1.25 | migration z between -2 and 2; enough cells | 1.21 | 5600 |
| NQO2 (N-ribosyldihydronicotinamide:quinone dehydrogenase 2) | 0.05 | migration z between -2 and 2; enough cells | 0.82 | 4622 |
| MORN1 (MORN repeat containing 1) | -0.44 | migration z between -2 and 2; enough cells | 0.77 | 4842 |
| COL5A1 (collagen type V alpha 1 chain) | 0.87 | migration z between -2 and 2; enough cells | 1.11 | 5364 |
| SLC4A9 | 1.14 | migration z between -2 and 2; enough cells | 1.02 | 5078 |
| TXN (thioredoxin) | -1.03 | migration z between -2 and 2; enough cells | 0.6 | 3990 |
| EDF1 (endothelial differentiation related factor 1) | 0.36 | migration z between -2 and 2; enough cells | 0.88 | 5584 |
| IGLL1 (immunoglobulin lambda like polypeptide 1) | 2.48 (active) | migration z above 2; enough cells | 1.54 | 6103 |
| MTMR10 (myotubularin related protein 10) | -0.91 | migration z between -2 and 2; enough cells | 0.64 | 6366 |
| GALK2 (galactokinase 2) | -2.31 | under 3300 nuclei; migration not judged | 0.36 | 3263 |
| ZNF354A (zinc finger protein 354A) | 0.62 | migration z between -2 and 2; enough cells | 0.92 | 6268 |
| TBXT (T-box transcription factor T) | -0.38 | migration z between -2 and 2; enough cells | 0.78 | 6028 |
| RIPOR1 (RHO family interacting cell polarization regulator 1) | -1.09 | migration z between -2 and 2; enough cells | 0.6 | 5181 |
| CLEC3B (C-type lectin domain family 3 member B) | -0.86 | migration z between -2 and 2; enough cells | 0.66 | 5478 |
| SRGAP3 (SLIT-ROBO Rho GTPase activating protein 3) | 0.48 | migration z between -2 and 2; enough cells | 1.01 | 6172 |
| CD79B (CD79b molecule) | 0.7 | migration z between -2 and 2; enough cells | 0.94 | 5094 |
| HPCA (hippocalcin) | 1.18 | migration z between -2 and 2; enough cells | 1.19 | 6465 |
| TXLNB (taxilin beta) | 2.63 (active) | migration z above 2; enough cells | 1.57 | 8028 |
| C4orf46 (chromosome 4 open reading frame 46) | 0.3 | migration z between -2 and 2; enough cells | 0.96 | 5274 |
| SCN3A (sodium voltage-gated channel alpha subunit 3) | -0.68 | migration z between -2 and 2; enough cells | 0.68 | 6309 |

Just “migration class with cell-count check”, for 5 of the entries above:
TBXT (T-box transcription factor T): migration z between -2 and 2; enough cells
RIPOR1 (RHO family interacting cell polarization regulator 1): migration z between -2 and 2; enough cells
CLEC3B (C-type lectin domain family 3 member B): migration z between -2 and 2; enough cells
SRGAP3 (SLIT-ROBO Rho GTPase activating protein 3): migration z between -2 and 2; enough cells
CD79B (CD79b molecule): migration z between -2 and 2; enough cells

More entries follow:
| gene knocked down | migration robust z-score | migration class with cell-count check | migration relative to mock | nuclei per well, duplicate mean |
| --- | --- | --- | --- | --- |
| RNF13 (ring finger protein 13) | -0.98 | migration z between -2 and 2; enough cells | 0.62 | 5332 |
| MRGPRG (MAS related GPR family member G) | -0.02 | migration z between -2 and 2; enough cells | 0.8 | 5830 |
| CPLX3 (complexin 3) | 1.44 | migration z between -2 and 2; enough cells | 1.25 | 5880 |
| ASB5 (ankyrin repeat and SOCS box containing 5) | -1.25 | migration z between -2 and 2; enough cells | 0.56 | 5392 |
| UBAP2L (ubiquitin associated protein 2 like) | -1.18 | migration z between -2 and 2; enough cells | 0.58 | 5272 |
| CD37 (CD37 molecule) | 0.66 | migration z between -2 and 2; enough cells | 1.06 | 6001 |
| ERCC6L (ERCC excision repair 6 like DNA helicase) | -0.57 | migration z between -2 and 2; enough cells | 0.74 | 5508 |
| DEFB104A (defensin beta 104A) | -1.1 | migration z between -2 and 2; enough cells | 0.6 | 4010 |
| FAM149A (family with sequence similarity 149 member A) | 0.16 | migration z between -2 and 2; enough cells | 0.92 | 5606 |
| CS (citrate synthase) | -0.6 | migration z between -2 and 2; enough cells | 0.69 | 4470 |
| HEPN1 (hepatocellular carcinoma, down-regulated 1) | -0.85 | migration z between -2 and 2; enough cells | 0.66 | 5832 |
| NEIL2 (nei like DNA glycosylase 2) | -0.54 | migration z between -2 and 2; enough cells | 0.7 | 5116 |
| MYO16 (myosin XVI) | -0.2 | migration z between -2 and 2; enough cells | 0.84 | 5888 |
| ZNF474 (zinc finger protein 474) | 0.06 | migration z between -2 and 2; enough cells | 0.9 | 5928 |
| ZNF589 (zinc finger protein 589) | -0.12 | migration z between -2 and 2; enough cells | 0.85 | 5564 |
| ZNF563 (zinc finger protein 563) | 0.39 | migration z between -2 and 2; enough cells | 0.99 | 5771 |
| VAT1L (vesicle amine transport 1 like) | 0.42 | migration z between -2 and 2; enough cells | 0.88 | 3760 |
| SCN11A (sodium voltage-gated channel alpha subunit 11) | 0 | migration z between -2 and 2; enough cells | 0.8 | 5359 |
| C1QL2 (complement C1q like 2) | 0.58 | migration z between -2 and 2; enough cells | 1.04 | 5107 |
| FNDC4 (fibronectin type III domain containing 4) | -0.9 | migration z between -2 and 2; enough cells | 0.65 | 5323 |
